Experiment [1] deals with T1, FLAG-tagged WDR1 (Sf9 co-expression) (human) (UniProt O75083).
T1 sequence: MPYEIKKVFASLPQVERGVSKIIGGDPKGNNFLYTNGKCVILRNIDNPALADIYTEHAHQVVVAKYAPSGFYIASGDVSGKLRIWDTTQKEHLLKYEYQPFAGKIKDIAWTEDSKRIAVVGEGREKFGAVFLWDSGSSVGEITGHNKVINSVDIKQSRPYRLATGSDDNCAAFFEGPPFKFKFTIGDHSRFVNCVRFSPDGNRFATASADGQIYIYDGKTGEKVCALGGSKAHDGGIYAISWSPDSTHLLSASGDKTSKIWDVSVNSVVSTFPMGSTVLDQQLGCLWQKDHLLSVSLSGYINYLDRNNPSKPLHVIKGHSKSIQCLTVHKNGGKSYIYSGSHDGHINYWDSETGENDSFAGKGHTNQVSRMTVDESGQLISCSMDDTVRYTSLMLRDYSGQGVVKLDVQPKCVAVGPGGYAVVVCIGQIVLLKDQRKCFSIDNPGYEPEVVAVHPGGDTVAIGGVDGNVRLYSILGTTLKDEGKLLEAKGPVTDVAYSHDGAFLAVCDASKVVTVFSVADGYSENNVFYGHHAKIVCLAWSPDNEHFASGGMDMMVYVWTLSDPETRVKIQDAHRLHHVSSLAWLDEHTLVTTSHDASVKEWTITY
In words: pull-down.

Amino acid sequences for entries named in this document (tags omitted). A change or cut given only in a name is not applied to a line headed by its entry.
UniProt Q5TAQ9, whole entry: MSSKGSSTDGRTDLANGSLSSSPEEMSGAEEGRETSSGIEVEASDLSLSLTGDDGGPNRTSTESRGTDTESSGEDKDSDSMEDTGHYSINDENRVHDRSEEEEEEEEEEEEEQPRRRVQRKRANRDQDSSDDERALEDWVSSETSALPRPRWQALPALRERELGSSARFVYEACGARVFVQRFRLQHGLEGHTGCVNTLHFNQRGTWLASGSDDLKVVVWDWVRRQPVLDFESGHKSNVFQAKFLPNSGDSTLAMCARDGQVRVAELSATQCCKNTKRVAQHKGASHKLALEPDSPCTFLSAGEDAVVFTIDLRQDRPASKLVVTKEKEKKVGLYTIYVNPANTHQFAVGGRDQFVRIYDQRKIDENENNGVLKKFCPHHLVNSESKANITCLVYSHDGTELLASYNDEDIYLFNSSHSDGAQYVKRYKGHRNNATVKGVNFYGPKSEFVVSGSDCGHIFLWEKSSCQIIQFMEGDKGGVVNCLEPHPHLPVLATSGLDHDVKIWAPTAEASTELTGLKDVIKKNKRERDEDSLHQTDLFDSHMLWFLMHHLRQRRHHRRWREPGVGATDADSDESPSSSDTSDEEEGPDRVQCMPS
UniProt Q13620, whole entry: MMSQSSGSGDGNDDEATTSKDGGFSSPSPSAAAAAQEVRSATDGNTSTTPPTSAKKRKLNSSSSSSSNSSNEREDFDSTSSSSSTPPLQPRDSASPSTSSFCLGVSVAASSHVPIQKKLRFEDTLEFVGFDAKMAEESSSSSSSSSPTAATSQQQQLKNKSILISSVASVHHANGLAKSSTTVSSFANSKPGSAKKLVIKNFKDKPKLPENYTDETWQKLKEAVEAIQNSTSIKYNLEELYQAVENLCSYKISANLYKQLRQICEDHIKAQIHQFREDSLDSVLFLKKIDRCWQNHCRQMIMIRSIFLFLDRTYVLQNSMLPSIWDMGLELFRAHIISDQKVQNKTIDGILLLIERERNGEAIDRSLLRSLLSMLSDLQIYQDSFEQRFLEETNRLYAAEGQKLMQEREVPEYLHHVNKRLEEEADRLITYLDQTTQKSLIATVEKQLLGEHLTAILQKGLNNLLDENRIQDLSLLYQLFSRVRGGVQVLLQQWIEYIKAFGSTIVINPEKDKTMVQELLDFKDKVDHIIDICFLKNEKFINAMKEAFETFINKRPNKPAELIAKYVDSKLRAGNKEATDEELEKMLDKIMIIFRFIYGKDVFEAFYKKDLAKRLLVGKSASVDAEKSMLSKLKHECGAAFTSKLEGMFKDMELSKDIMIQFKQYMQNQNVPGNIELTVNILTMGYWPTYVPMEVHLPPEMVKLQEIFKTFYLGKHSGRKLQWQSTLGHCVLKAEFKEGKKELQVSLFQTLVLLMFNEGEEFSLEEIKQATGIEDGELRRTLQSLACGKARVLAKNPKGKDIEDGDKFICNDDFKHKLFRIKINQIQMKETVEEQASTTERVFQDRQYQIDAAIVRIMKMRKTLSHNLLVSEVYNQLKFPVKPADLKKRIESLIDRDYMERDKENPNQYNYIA
UniProt Q16531, whole entry: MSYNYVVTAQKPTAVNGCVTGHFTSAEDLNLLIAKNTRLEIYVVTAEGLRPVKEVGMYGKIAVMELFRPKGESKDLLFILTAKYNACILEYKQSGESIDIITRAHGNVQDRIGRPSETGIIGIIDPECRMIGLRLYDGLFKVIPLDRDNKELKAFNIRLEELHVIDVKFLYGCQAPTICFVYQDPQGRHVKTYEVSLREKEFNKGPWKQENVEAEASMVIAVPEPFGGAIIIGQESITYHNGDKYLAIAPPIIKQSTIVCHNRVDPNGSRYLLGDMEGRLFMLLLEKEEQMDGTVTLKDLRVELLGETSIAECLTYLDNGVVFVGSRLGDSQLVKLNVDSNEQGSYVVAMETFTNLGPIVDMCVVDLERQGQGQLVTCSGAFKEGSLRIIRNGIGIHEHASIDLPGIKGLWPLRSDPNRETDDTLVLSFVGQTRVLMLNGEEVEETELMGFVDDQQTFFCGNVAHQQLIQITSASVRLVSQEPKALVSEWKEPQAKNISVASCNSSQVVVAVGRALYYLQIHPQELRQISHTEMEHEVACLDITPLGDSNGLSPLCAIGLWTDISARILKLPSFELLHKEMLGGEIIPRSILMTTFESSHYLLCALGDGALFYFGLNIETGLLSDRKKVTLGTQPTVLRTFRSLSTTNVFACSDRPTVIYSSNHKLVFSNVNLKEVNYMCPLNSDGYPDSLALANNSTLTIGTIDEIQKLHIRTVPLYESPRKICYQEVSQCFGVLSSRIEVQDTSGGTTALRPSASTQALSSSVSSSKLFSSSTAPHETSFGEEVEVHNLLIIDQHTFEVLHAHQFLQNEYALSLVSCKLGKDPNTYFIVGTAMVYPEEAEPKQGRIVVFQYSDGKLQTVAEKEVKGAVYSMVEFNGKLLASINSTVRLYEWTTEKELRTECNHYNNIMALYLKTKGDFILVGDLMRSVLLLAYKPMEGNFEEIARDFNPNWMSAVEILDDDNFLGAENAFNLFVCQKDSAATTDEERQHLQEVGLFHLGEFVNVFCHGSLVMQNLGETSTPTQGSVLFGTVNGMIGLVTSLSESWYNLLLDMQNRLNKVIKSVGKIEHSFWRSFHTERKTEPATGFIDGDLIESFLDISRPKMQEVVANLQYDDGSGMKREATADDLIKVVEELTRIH
UniProt Q14203, whole entry: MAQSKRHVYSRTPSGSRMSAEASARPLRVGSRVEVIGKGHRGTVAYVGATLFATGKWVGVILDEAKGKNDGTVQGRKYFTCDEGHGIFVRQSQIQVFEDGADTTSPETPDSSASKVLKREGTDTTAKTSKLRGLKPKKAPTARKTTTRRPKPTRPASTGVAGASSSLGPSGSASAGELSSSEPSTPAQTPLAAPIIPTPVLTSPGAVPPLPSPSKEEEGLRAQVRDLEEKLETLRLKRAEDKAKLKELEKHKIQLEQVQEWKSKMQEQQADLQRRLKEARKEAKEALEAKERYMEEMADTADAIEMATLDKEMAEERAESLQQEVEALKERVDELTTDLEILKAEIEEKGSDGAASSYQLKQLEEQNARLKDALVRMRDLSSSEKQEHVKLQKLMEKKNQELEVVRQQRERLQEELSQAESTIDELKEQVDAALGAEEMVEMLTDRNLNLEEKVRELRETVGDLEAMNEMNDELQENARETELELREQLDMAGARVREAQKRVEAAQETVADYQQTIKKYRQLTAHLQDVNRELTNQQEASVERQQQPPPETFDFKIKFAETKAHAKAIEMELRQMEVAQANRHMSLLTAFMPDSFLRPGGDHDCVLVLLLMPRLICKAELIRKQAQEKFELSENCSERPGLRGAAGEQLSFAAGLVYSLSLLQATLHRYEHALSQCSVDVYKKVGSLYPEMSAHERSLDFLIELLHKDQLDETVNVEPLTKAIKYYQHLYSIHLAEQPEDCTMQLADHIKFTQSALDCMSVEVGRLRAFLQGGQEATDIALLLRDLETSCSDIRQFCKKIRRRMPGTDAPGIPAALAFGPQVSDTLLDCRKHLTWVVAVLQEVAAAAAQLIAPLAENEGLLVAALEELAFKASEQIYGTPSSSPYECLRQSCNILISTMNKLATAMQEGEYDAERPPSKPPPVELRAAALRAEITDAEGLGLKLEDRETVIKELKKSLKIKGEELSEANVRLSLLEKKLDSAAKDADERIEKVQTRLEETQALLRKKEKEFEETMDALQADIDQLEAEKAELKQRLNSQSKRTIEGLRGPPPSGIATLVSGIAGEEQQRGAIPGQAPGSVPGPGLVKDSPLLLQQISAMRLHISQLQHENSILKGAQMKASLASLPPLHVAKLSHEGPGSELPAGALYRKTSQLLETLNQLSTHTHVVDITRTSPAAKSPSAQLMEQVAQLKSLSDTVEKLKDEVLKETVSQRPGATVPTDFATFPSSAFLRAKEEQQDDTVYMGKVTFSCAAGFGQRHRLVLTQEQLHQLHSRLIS

The target of experiment [2] is Strep-DCAF8 (Sf9 co-expression) (UniProt Q5TAQ9). The experiment in a line: pull-down.
Experiment [3] concerns the target HA-tagged CUL4B, wild type (endogenously tagged) (human (endogenous in HeLa Kyoto)) (UniProt Q13620). The experiment in a line: co-IP.
The target in experiment [4] is HA-tagged CUL4B P50L mutant (endogenously tagged) (human (endogenous in HeLa Kyoto)) (UniProt Q13620). The experiment in a line: co-IP.

Results are given in words; binding and its absence hold for the method and conditions named. In cells and extracts the contact can be indirect. Some binding calls cover weakened binding; strength is not graded here. For some assays here: Tags and fused reporters may be left off the sequences shown.

In the case of “His-DDB1 (recombinant) (from UniProt Q16531 1-1140)”, the binding result in experiment [1] and in experiment [2] was “binds” throughout.

As for “DDB1 (endogenous) (from UniProt Q16531 1-1140)”, the binding result in experiment [3] and in experiment [4] was “binds” throughout.

Regarding “DCTN1 (dynactin, endogenous) (from UniProt Q14203 1-1278)”, in experiment [3], the binding result was “binds”.
